# Assay results from patent publication US20070213354A1, “Compositions and Methods for the Treatment of Multiple Sclerosis” (AmpliMed Corporation, priority 2006, published 2007).
# System: neonatal rat myocytes
# Assay: Cardiotoxicity, neonatal rat myocyte assay (ATP/protein ratio)
# Format: cell-based
# Settings: ratio of the IC50 values for Cardiotox and L1210 sensitive assays
smiles,measurement,value
"O=C1c2c(O)ccc(O)c2C(=O)c2c(NCCNCCO)ccc(NCCNCCO)c21 [Mitoxantrone, reference compound]",Cardiotox:L1210sens,773.70

# The amount applied is not stated for every result.
